Results on twelve molecules are retold here after publication doi:10.1101/2024.09.04.610270.

By UniProt entry, the sequences of proteins in these tests, tags left out.
UniProt Q94A52: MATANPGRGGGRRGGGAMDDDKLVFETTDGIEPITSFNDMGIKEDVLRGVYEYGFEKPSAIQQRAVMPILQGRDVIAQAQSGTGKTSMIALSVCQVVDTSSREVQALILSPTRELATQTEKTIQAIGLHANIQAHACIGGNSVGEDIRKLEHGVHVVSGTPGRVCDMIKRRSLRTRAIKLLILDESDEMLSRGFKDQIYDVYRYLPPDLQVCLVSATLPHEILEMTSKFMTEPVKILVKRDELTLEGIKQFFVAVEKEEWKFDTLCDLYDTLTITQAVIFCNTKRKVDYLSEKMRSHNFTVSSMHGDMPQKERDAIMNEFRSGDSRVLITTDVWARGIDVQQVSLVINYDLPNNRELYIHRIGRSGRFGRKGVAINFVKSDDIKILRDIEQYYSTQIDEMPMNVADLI

The target in assay [1] is T1, arginine/serine-rich zinc knuckle-containing protein 33 (RS2Z33), native full-length, yeast two-hybrid bait (Arabidopsis thaliana) (UniProt Q8VYA5).
T1 sequence: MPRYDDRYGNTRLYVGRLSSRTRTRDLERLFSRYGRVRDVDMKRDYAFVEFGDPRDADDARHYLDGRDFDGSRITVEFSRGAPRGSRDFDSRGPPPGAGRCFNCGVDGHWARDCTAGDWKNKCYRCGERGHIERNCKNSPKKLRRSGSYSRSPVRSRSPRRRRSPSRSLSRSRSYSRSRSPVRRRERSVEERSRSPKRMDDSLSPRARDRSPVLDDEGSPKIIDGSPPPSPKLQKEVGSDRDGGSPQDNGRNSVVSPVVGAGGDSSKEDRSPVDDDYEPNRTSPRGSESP
The assay can be described thus: two-hybrid.

Assay [2] addresses T2, arginine/serine-rich zinc knuckle-containing protein 32 (RS2Z32), native full-length, yeast two-hybrid bait (Arabidopsis thaliana) (UniProt Q9FYB7).
T2 sequence: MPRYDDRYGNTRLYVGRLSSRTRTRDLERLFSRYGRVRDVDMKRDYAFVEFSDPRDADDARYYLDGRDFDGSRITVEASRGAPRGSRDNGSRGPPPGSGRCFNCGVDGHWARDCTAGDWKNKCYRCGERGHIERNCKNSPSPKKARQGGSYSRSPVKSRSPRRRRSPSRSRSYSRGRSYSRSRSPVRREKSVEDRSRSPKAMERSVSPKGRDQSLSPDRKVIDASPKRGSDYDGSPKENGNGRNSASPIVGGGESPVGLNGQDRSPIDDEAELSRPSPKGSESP
The assay can be described thus: two-hybrid.

No constants are given. Whether binding was seen depends on the method and setting. Some binding calls cover weakened binding; strength is not graded here.

Consider eIF4AIII (from UniProt Q94A52 1-408), for which the binding result in assay [1] and in assay [2] was “no binding” in each case.

B1: SR34a (protein, UniProt A2RVS6 1-300)
chain: MSGRFSRSIYVGNLPGDIREHEIEDIFYKYGRIVDIELKVPPRPPCYCFVEFEHSRDAEDAIKGRDGYNLDGCRLRVELAHGGRGQSSSDRRGGYGGGGSGYGGGGGGGGSARFGVSRHSEFRVIVRGLPSSASWQDLKDHMRKAGDVCFAEVTRDSDGTYGVVDYTNYDDMKYAIRKLDDTEFRNPWARGFIRVKKYESSRSRSRSPSRSRSRSRSRSRSRGRGRSHSRSRSLSRSKSPRKDLSKSPRRSLSRSISKSRSPSPDKKKSPPRAMSRSKSRSRSRSRSPSKSPPKVREGSV
Take B1: the binding result in assay [1] and in assay [2] was “binds weakly” throughout.

B2: AFC3 (enzyme, UniProt P51568 1-400)
chain: MIANGFESMDKERVRKRPRMTWDEAPAEPEAKRAVIKGHGSDGRILSPPLRDDDRDGHYVFSLRDNLTPRYKILSKMGEGTFGRVLECWDRDTKEYVAIKIIRSIKKYRDAAMIEIDVLQKLVKSDKGRTRCVQMKNWFDYRNHICIVFEKLGPSLFDFLKRNKYSAFPLALVRDFGCQLLESVAYMHELQLVHTDLKPENILLVSSENVKLPDNKRSAANETHFRCLPKSSAIKLIDFGSTVCDNRIHHSIVQTRHYRSPEVILGLGWSYQCDLWSIGCILFELCTGEALFQTHDNLEHLAMMERALGPLPEHMTRKASRGAEKYFRRGCRLNWPEGANSRESIRAVKRLDRLKDMVSKHVDNTRSRFADLLYGLLAYDPSERLTANEALDHPFFKSSS
Consider B2, for which the binding result in assay [1] and in assay [2] was “no binding” in each case.

B3: SCL28 (protein, UniProt Q1PDV2 1-236)
chain: MARARSRSRSYSPRPRDRSPPRERKGYDDNRLRERPSSRDHESSGPSGLLIRNLPLDARPNDLRDSFERFGPLKDIYLPRNYYTGEPRGFGFVKYRYAEDAAEAMKRMNHKVIGGREIAIVFAEENRKTPQEMRTTNGTSGRHGDYKRTSHRSPRRRYRSHSRSRSPPRRESRHSKVREDDLYSPRRRSRSISRSPLPRNEREYKSRNCRSPREERVLTPIRSRCLSRSRSRSLSR
As for B3, the binding entry in assay [1] and in assay [2] was “binds weakly” throughout.

B4: AFC1 (enzyme, UniProt P51566 1-467)
chain: MQSSVYRDKASSIAMILETQRNVEFPHRIVDKRPRKRPRLTWDAAPPLLPPPPPPTVFQPPLYYGPEFASGLVPNFVYPNMFYNGLPRQGSPPWRPDDKDGHYVFVVGDTLTPRYQILSKMGEGTFGQVLECFDNKNKEVVAIKVIRSINKYREAAMIEIDVLQRLTRHDVGGSRCVQIRNWFDYRNHICIVFEKLGPSLYDFLRKNSYRSFPIDLVRELGRQLLESVAYMHDLRLIHTDLKPENILLVSSEYIKIPDYKFLSRPTKDGSYFKNLPKSSAIKLIDFGSTTFEHQDHNYIVSTRHYRAPEVILGVGWNYPCDLWSIGCILVELCSGEALFQTHENLEHLAMMERVLGPLPPHMVLRADRRSEKYFRRGAKLDWPEGATSRDSLKAVWKLPRLPNLIMQHVDHSAGDLIDLLQGLLRYDPTERFKAREALNHPFFTRSREQSIPPFNPNPHPFLYNQKN
As to B4, the binding entry in assay [1] and in assay [2] was “no binding” throughout.

B5: AFC2 (enzyme, UniProt P51567 1-427)
chain: MEMERVHEFPHTHMDRRPRKRARLGWDVLPQATKAQVGMFCGQEIGNISSFASSGAPSDNSSSLCVKGVARNGSPPWREDDKDGHYIFELGDDLTPRYKIYSKMGEGTFGQVLECWDRERKEMVAVKIVRGVKKYREAAMIEIEMLQQLGKHDKGGNRCVQIRNWFDYRNHICIVFEKLGSSLYDFLRKNNYRSFPIDLVREIGWQLLECVAFMHDLRMIHTDLKPENILLVSSDYVKIPEYKGSRLQRDVCYKRVPKSSAIKVIDFGSTTYERQDQTYIVSTRHYRAPEVILGLGWSYPCDVWSVGCIIVELCTGEALFQTHENLEHLAMMERVLGPFPQQMLKKVDRHSEKYVRRGRLDWPDGATSRDSLKAVLKLPRLQNLIMQHVDHSAGELINMVQGLLRFDPSERITAREALRHPFFARRR
Take B5: the binding entry in assay [1] and in assay [2] was “no binding” throughout.

B6: SCL30a (protein, UniProt Q9LHP2 1-262)
chain: MRGRSYTPSPPRGYGRRGRSPSPRGRFGGSRDSDLPTSLLVRNLRHDCRQEDLRRPFEQFGPVKDIYLPRDYYTGDPRGFGFIQFMDPADAAEAKHQMDGYLLLGRELTVVFAEENRKKPTEMRTRDRGGRSNRFQDRRRSPPRYSRSPPPRRGRRSRSRSRGYNSPPAKRHQSRSVSPQDRRYEKERSYSRSPPHNGSRVRSGSPGRVKSHSRSPRRSVSPRKNRSYTPEQARSQSPVPRQSRSPTPVPRGAQNGDRSPSQ
On to B6, for which the binding result in assay [1] and in assay [2] was “binds weakly” throughout.

B7: SR34 (protein, UniProt O22315 1-303)
chain: MSSRSSRTVYVGNLPGDIREREVEDLFSKYGPVVQIDLKVPPRPPGYAFVEFDDARDAEDAIHGRDGYDFDGHRLRVELAHGGRRSSDDTRGSFNGGGRGGGRGRGDGGSRGPSRRSEFRVLVTGLPSSASWQDLKDHMRKGGDVCFSQVYRDARGTTGVVDYTCYEDMKYALKKLDDTEFRNAFSNGYVRVREYDSRKDSRSPSRGRSYSKSRSRSRGRSVSRSRSRSRSRSRSPKAKSSRRSPAKSTSRSPGPRSKSRSPSPRRSRSRSRSPLPSVQKEGSKSPSKPSPAKSPIHTRSPSR
Take B7: the binding entry in assay [1] and in assay [2] was “binds” in each case.

B8: Cyp65 (protein, UniProt Q9FJX0 1-595)
chain: MGKKQHSKDRMFITKTEWATEWGGAKSKENRTPFKSLPYYCCALTFLPFEDPVCTIDGSVFEITTIVPYIRKFGKHPVTGAPLKGEDLIPLIFHKNSEGEYHCPVLNKVFTEFTHIVAVKTTGNVFCYEAIKELNIKTKNWKELLTEEPFTRADLITIQNPNAVDGKVTVEFDHVKNGLKIDDEELKKMNSDPAYNINVSGDIKHMLADLGTDKAKEIALHGGGGNKARNERAAAIAAILESRSKIKEVSKAEQPKQTYSVVDAASASVFGRSADAAKAGSSDKTAARIAMHMAGDRTPVNSKMVKSRYSSGAASRSFTSSAFTPVTKNDFELIKVEKNPKKKGYVQFQTTHGDLNIELHCDIAPRACENFITLCERGYYNGVAFHRSIRNFMIQGGDPTGTGKGGESIWGKPFKDEPNSKLLHSGRGVVSMANSGPHTNGSQFFVLYKSATHLNYKHTVFGGVVGGLATLAAMENVPVDESDRPLEEIKIIEASVFVNPYTELDEEEEKEKAEKEKNEDKDIEKIGSWYSNPGSGTTEAGAGGGGVGKYLKAMSSTATKDTKGSLDSDISTIGVSKKRKTTASASTGFKDFSSW
For the molecule B8, the binding result in assay [1] and in assay [2] was “no binding” throughout.

B9: SCL33 (protein, UniProt Q9SEU4 1-287)
chain: MRGRSYTPSPPRGYGRRGRSPSPRGRYGGRSRDLPTSLLVRNLRHDCRQEDLRKSFEQFGPVKDIYLPRDYYTGDPRGFGFVQFMDPADAADAKHHMDGYLLLGRELTVVFAEENRKKPTEMRARERGGGRFRDRRRTPPRYYSRSRSPPPRRGRSRSRSGDYYSPPPRRHHPRSISPREERYDGRRSYSRSPASDGSRGRSLTPVRGKSRSLSPSPRRSISRSPRRSRSPSPKRNRSVSPRRSISRSPRRSRSPRRSRRSYTPEPARSRSQSPHGGQYDEDRSPSQ
As to B9, the binding entry in assay [1] and in assay [2] was “binds” in each case.

B10: RSZ21 (protein, UniProt O81127 1-187)
chain: MTRVYVGNLDPRVTERELEDEFKAFGVLRNVWVARRPPGYAFLEFDDERDALDAISALDRKNGWRVELSHKDKGGRGGGGGRRGGIEDSKCYECGELGHFARECRRGRGSVRRRSPSPRRRRSPDYGYARRSISPRGRRSPPRRRSVTPPRRGRSYSRSPPYRGSRRDSPRRRDSPYGRRSPYANGV
For the molecule B10, the binding entry in assay [1] and in assay [2] was “binds weakly” each time.

B11: MOS14 (protein, UniProt Q8GUL2 1-958)
chain: MEHQNAVKEALNALYHHPDDTVRVHADRWLQNFQGTLDAWQVADNLLHDSSSNLETLIFCSQTLRSKVQRDFEELPPGAFQKLRQSLTTLLKKFHKGPPKVRTQISIAVAALAVHVPAADWGDGGIISWLRDEMHMHPEYVPGFLELLTVLPEETFNYKIAARPDRRRQFEKELTSQMEAALSILSACLKISELKEQVLEAFASWLRLRHGIPGTVLACHPLVHAALSSLNCDPLSEASVNVISELIHHTASPSSGGISAQTPLIQVIVPQILSLQAHLRDSSKDEEDVKAIGRLFADVGDSYVELIATGSDEPMVIVHALLEVTAHPEFDIASMTFNFWHSLQLMLTKRESYSSLGSEASIEVERNRRLHIFQPAYQSLVSLVGFRVQYPEDYQGLSYEDLKEFKQTRYAVADVLIDAALILGGDTTLKILYMKLLEANAQTGNNFQDWRPAEAILFCIWAISNYVSVVEAEVMPQVMALLQNLPQQAQLLQTACLLVGAYSKWLNAAPASVSILPSIIRILMSGMGTSEDCAAAAALAFRHTCDDCRKNLCGYFEDLFNIYCMAINGGGGYKVSAEDSLNLVEALGMVVTELPLDQAKGALEKLCFSAASPLEEAAKEDLEKKHARELTVHIDRFAFLFRYVNHPEAVAAEINKHWAIFRVIFDARPWDMRTMESLCRACKYAVRTSGRYIIDTIGEMLEKIQFHYQQHHQPCFLYLSSEVIKIFGSDPSCAVYLKNLIETLFAHTTCLMTSIKEVTARPDIADDCFLLASRCLRYCPHLFIPSPIFPALVNCAMIGITVQHREACHSILTFLTDIFDLEKSVNEEQFVRIRDNIIIPRGATITRILIASLAGALPSSRLDTVTYSLLALTRTYRLQAVSWAKESVSLIPRTALTETESTKFLQALSDIAYGADVNSLIGQVEELSDVCRRNRTVQELVQAALKPLELNLVTAPVS
Consider B11, for which the binding entry in assay [1] and in assay [2] was “binds” each time.
